Article PMC9066100
These are yes or no findings as the source states them, for the method shown. Binding seen in cells or lysates may run through a third protein. Some binding calls cover weakened binding; strength is not graded here.

Amino acid sequences for entries named in this document (tags omitted).
UniProt P21333: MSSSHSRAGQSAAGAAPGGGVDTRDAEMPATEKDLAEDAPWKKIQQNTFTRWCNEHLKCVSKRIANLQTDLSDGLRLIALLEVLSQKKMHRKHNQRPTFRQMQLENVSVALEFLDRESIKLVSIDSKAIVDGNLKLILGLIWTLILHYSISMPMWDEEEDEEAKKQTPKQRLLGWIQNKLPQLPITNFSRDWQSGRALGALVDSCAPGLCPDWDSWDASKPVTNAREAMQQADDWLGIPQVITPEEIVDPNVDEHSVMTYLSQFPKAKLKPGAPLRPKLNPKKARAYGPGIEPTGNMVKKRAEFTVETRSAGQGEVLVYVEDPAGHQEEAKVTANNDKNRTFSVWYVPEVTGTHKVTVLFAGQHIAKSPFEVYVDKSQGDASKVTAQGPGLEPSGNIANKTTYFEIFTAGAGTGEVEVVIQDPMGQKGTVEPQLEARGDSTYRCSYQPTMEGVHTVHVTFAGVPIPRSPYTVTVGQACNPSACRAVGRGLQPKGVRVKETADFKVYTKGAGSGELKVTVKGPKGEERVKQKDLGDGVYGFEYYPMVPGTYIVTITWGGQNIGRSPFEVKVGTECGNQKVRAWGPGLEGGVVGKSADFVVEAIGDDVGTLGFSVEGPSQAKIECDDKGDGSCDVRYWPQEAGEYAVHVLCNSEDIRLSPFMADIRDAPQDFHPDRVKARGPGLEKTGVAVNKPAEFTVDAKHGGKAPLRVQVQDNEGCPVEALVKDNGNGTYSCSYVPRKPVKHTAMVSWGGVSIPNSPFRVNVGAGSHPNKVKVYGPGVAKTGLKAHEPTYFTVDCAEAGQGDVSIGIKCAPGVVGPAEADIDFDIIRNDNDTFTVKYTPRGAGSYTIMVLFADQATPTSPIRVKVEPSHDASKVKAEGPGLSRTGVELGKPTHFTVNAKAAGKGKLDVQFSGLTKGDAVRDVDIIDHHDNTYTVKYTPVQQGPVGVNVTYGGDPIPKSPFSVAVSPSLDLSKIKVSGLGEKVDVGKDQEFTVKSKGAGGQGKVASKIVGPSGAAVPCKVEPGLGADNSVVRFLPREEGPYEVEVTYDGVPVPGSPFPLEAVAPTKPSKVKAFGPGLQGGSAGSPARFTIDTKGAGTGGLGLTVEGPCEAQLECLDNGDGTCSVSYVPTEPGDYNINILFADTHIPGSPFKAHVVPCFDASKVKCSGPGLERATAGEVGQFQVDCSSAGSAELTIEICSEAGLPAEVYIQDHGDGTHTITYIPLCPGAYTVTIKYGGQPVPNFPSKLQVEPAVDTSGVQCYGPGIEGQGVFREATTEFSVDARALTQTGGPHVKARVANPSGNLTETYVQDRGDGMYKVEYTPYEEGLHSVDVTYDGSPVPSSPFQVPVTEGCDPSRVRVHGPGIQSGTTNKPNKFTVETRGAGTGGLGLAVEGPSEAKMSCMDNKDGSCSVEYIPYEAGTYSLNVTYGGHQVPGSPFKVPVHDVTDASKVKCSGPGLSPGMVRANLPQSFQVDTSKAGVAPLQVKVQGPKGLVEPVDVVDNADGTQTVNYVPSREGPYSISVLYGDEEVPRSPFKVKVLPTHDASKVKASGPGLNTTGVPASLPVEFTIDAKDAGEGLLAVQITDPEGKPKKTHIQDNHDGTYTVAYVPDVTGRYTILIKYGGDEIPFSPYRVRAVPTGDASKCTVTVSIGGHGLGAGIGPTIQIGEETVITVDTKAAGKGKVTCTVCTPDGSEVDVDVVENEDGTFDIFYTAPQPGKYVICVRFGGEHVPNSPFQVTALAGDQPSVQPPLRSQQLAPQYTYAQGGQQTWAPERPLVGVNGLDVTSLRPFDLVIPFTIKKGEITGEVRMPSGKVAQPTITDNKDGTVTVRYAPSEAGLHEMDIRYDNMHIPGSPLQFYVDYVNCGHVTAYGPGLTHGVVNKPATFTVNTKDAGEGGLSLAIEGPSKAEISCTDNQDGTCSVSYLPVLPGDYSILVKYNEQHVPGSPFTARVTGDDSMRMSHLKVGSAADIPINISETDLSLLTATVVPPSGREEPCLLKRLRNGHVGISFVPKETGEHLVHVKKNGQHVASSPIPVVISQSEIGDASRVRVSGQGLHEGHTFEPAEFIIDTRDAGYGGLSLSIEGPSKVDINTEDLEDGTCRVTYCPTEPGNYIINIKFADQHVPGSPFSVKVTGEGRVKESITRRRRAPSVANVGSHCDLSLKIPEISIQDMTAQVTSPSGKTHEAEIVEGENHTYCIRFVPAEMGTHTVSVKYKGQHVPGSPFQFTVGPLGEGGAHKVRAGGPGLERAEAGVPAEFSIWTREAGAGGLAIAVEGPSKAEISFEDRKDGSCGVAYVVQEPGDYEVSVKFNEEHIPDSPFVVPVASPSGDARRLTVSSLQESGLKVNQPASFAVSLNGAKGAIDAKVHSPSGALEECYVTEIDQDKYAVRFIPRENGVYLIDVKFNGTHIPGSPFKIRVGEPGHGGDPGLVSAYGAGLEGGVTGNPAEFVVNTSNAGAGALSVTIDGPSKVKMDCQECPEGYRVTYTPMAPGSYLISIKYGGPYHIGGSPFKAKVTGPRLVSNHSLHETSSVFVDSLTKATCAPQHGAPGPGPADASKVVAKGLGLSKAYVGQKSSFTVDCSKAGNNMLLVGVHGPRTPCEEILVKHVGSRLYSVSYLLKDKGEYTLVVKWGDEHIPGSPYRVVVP
UniProt Q96DX7: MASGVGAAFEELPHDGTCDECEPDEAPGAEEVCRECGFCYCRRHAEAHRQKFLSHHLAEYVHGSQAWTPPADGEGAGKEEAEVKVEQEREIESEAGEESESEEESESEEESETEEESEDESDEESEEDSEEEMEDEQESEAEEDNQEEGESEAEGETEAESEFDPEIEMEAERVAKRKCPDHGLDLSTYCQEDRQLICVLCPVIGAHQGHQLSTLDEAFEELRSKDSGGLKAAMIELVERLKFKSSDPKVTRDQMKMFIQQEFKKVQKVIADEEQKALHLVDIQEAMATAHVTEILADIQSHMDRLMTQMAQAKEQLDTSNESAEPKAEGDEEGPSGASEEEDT

Tests used:
[1] = molecular target: filamin A (FLNA) (human (endogenous in A549/DDP)) (UniProt P21333); assay: co-IP; A549/DDP cells overexpressing flag-tagged TRIM44 lysed with IP lysis buffer; immunoprecipitated with Flag antibody or FLNA antibody, rabbit IgG as negative control; bound proteins examined by Western blotting
[2] = molecular target: Flag-TRIM44 (Tripartite motif-containing 44) (human) (UniProt Q96DX7); assay: as above

With “Flag-TRIM44 (Tripartite motif-containing 44) (from UniProt Q96DX7 1-344)” the binding [1] was “binds”.
“filamin A (FLNA) (from UniProt P21333 1-2647)” was tested, and the binding [2] was “binds”.
